These results are taken from PubChem BioAssay AID2685 (National Center for Advancing Translational Sciences (NCATS), 2010).

This assay in a line: qHTS Assay for Lipid Storage Modulators in Drosophila S3 Cells.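 For cell number change: cells counted by Cell Tracker Red CMTPX staining in the red channel.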 To be noted: BODIPY lipid droplet fluorescence, 18-24 h; for cell number change: measured here: cell count max response, cells fed with added oleic acid. In outline:
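Laser-scanning cytometry quantifies lipid droplet accumulation (500–530 nm total intensity; droplet/cell object ratio) in oleic acid-fed (400 uM added) Drosophila S3 cells treated with a concentration series. 20 uM Triacsin C defined 100% inhibition.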

[1] abbreviates: measured here: lipid fluorescence (Fed channel) AC50, cells fed with added oleic acid.
Where [2] appears, read: measured here: cell number channel AC50, cells fed with added oleic acid.

Some of the results follow. Shown are side measurements of this screen, not its main read-out; they come without a call. Compounds called inactive in the main read-out are mostly missing here. Potencies come from curve fits of mixed quality, noted in brackets.

`CCN(CC)CCCn1c(=S)[nH]c2ncccc2c1=O`: the cell number change was determined as 4.56%. Moreover, under setting [1], the AC50 is 23.1 µM [falling, single point].

Regarding `NC(=O)CSc1oc(-c2cccs2)nc1S(=O)(=O)c1ccccc1`, the cell number change worked out at 118%. For the same compound, the AC50 under setting [2] was 18.4 µM [rising, partial curve]. For the same compound, the AC50 under setting [1] is 9.2 µM [rising, partial curve]. `O=C1c2ccccc2C(=O)N1CC1CCCO1` (stereo unspecified): the AC50 under setting [1] was 0.58 µM [rising, single point]. Regarding `O=C(N/N=C/c1ccccn1)c1[nH]c2ccc([N+](=O)[O-])cc2c1-c1ccccc1`, the cell number change was -3.12%. Also, the AC50 under setting [1] was 18.4 µM [falling, single point]. For `Cc1ccc(P(=Nc2ccccc2)(N2CCOCC2)N2CCOCC2)o1`, the cell number change was -15.3%. The AC50 under setting [1] was 0.206 µM [falling, full curve].

Take `CC(=O)Nc1nonc1-c1nc2ccccc2n1Cc1nnc(C)o1`: the cell number change is -5.88%. For the same compound, under setting [1], the AC50 is 6.51 µM [rising, single point].

For the compound `O=C(CSc1ccc(F)cc1)NCCSc1ccccc1`, the AC50 under setting [1] is 29.1 µM [rising, single point].

For `S=C(Nc1ccc2c(c1)OCCO2)Nc1ccccc1Cl`, the cell number change was 6.65%. Take `COc1cc(OC)c(C(=O)/C=C/c2ccc(OCc3ccccc3)c(OC)c2)c(OC)c1`: the cell number change is 34.4%. Further, the AC50 under setting [2] was 0.116 µM [rising, full curve, poor fit]. For the compound `CCOc1ccc(NC(=O)CN(C)C(=O)c2c(-c3ccccc3)noc2C)cc1OCC`, the cell number change was -11%. Moreover, the AC50 under setting [1] was 6.51 µM [rising, single point]. Turning to `COC(=O)N/N=C/c1cc(Cl)cc(Cl)c1OCc1ccccc1`, the cell number change worked out at 10.5%. Under setting [1], the AC50 is 32.6 µM [rising, single point]. `O=C(Nc1cccc(Cl)c1)N1CCN(c2ncccn2)CC1`: under setting [2], the AC50 was 3.66 µM [rising, partial curve]. Turning to `COc1ccccc1NC(=O)NNC(=O)CCc1ccccc1`, the cell number change was determined as 29.2%. For the same compound, the AC50 under setting [1] is 29.1 µM [rising, single point]. Consider `O=C1CN(C(=O)CNCc2ccc(Cl)cc2)c2ccccc2N1`, for which the AC50 under setting [1] is 0.0517 µM [falling, full curve, poor fit]. Turning to `COCCCNC(=O)CCCn1c(=O)c2ccccc2n(CC(=O)Nc2c(C)cccc2C)c1=O`, the AC50 runs as follows: under setting [2], 2.06 µM [rising, partial curve]; under setting [1], 2.59 µM [rising, partial curve]. Turning to `CCOC(=O)C1CCCN(C(=O)Cn2sc3nc(C)cc(C)c3c2=O)C1` (stereo unspecified), the cell number change was -88.2%. Moreover, the AC50 under setting [2] was 25.9 µM [falling, partial curve]. In addition, the AC50 under setting [1] is 16.4 µM [falling, single point]. In the case of `Cc1cc(C)cc(N(C(=O)c2sc(C)nc2C)C(C(=O)NCc2ccco2)c2ccccc2)c1` (stereo unspecified), the cell number change is -4.29%. Besides, the AC50 under setting [1] was 18.4 µM [rising, partial curve].

In general, AC50 refers to the concentration at which the activity in the assay is half-maximal.
